Source: PubChem BioAssay AID652280 (Broad Institute, 2013)
This list was built around the results that the source calls inconclusive (neither active nor inactive); the mix of calls is not that of the screen. Activity calls are given as the source filed them. The rule behind the calls is not given here.

Test: NIH/3T3 fibroblast cytotoxicity, dose response, cytotoxicity control, cell-based, plate reader, dry powder, set 2 (AID 652280)
Settings: NIH/3T3 mouse fibroblast toxicity; at 16 µM (top of the series) unless noted

Row | Compound | activity change, negative = toxicity
1 | CC(C)N1C[C@@H](C)[C@H](CN(C)Cc2ccc(Oc3ccccc3)cc2)Oc2c(C(=O)Nc3ccncc3)cccc2C1=O | inconclusive: -95.3%
2 | C[C@@H]1CN([C@H](C)CO)C(=O)c2cccc(NC(=O)c3ccncc3)c2O[C@H]1CN(C)Cc1ccccc1 | inconclusive: -7.11%
3 | CC(C)N1C[C@H](C)[C@@H](CN(C)Cc2ccc(F)cc2)Oc2c(C(=O)Nc3ccncc3)cccc2C1=O | inconclusive: -49.6%
4 | C[C@@H]1CN([C@H](C)CO)C(=O)c2cccc(NC(=O)c3ccncc3)c2O[C@H]1CN(C)CC1CCCCC1 | inconclusive: -12.3%
5 | CC(C)N1C[C@H](C)[C@@H](CN(C)Cc2ccc(Cl)c(Cl)c2)Oc2c(C(=O)Nc3ccncc3)cccc2C1=O | inconclusive: -58.2%
6 | CC(C)N1C[C@H](C)[C@@H](CN(C)C(=O)OC(C)(C)C)Oc2c(cccc2-c2nn[nH]n2)C1=O | inactive: 34.3%
7 | CC(C)N1CC2(CN(Cc3ccc(-c4ccccc4)cc3)C2)Oc2c(NC(=O)c3ccncc3)cccc2C1=O | inconclusive: -49.7%
8 | CNC[C@@H]1Oc2c(C#N)cccc2C(=O)N(C(C)C)C[C@H]1C | inconclusive: 4.58%
9 | CCOC(=O)c1cc2c(c(-c3cccc(C#CCN(C)C)c3)n1)[C@@H](CCO)N(S(=O)C(C)(C)C)C2 (stereo partly specified) | inactive: 21.1%
10 | CC(C)N1C[C@H](CN(C)Cc2ccc(Cl)cc2)Oc2c(NC(=O)c3ccnnc3)cccc2C1=O | inactive: 3.72%
11 | CC(C)N1C[C@H](CN(C)Cc2ccc(Oc3ccccc3)cc2)Oc2c(NC(=O)c3ccncc3)cccc2C1=O | inconclusive: -53.1%

As entered above:
activity change, negative = toxicity, C[C@@H]1CN([C@H](C)CO)C(=O)c2cccc(NC(=O)c3ccncc3)c2O[C@H]1CN(C)Cc1ccccc1 is entered as inconclusive: -7.11%
activity change, negative = toxicity, CNC[C@@H]1Oc2c(C#N)cccc2C(=O)N(C(C)C)C[C@H]1C is entered as inconclusive: 4.58%
